# The list shows a part of the results.
# The chains behind the UniProt entries cited, without tags or fusion partners. Where a name states a change or a piece, a line headed by the entry shows the natural chain unless it says otherwise.
# UniProt P62318, whole entry, looked up: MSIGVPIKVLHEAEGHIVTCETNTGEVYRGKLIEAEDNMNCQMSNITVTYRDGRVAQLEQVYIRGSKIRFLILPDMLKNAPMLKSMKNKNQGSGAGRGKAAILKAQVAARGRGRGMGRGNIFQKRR
# UniProt Q8N0X7: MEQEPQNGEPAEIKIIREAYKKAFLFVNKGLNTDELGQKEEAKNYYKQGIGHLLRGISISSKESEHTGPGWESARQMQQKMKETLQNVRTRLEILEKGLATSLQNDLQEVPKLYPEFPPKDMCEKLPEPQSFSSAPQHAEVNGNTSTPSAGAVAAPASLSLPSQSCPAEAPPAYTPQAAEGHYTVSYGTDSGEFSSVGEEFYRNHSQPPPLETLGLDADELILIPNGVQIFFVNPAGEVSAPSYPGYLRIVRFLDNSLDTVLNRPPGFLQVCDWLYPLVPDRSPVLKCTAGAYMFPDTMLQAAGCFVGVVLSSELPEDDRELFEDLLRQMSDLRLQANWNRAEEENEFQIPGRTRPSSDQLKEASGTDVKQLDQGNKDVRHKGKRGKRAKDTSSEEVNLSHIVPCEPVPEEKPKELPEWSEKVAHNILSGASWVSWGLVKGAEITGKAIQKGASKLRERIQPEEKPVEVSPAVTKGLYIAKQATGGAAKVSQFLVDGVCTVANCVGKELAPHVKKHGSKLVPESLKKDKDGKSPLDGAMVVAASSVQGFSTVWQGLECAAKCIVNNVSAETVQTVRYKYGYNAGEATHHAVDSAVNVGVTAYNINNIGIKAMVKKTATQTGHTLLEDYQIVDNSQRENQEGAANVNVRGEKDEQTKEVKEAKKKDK
# How the values were obtained:
# [1] = molecular target: SNRPD3_P62318_20_VLHEAEGHIVTCETNTGEVYR (UniProt P62318); experiment: probe-labelled cysteine peptide fold change vs DMSO (competition) (log2 fold change); higher = less target engagement (more negative = stronger competition); settings: THP-1, incubation time: 4 h
# [2] = molecular target: SPART_Q8N0X7_405_DTSSEEVNLSHIVPCEPVPEEKPK (UniProt Q8N0X7); experiment: as above; settings: THP-1, incubation time: 4 h
# 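Also: competitive chemoproteomic profiling in live THP-1 cells with an iodoacetamide desthiobiotin (IA-DTB) probe, comparing probe-labelled peptide intensities in compound-treated cells against DMSO-treated controls.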
structure (smiles),measurement,setting,value
CC1Cc2ccccc2N1C(=O)C1CCCN(C(=O)CCl)C1 (mixture of isomers) [TRIM25 ligand 11 (diastereomer mixture)],probe-labelled cysteine peptide fold change,[1]; 10 µM,0.0412
same,probe-labelled cysteine peptide fold change,[1]; 50 µM,-0.0106
same,probe-labelled cysteine peptide fold change,[2]; 10 µM,-0.0604
same,probe-labelled cysteine peptide fold change,[2]; 50 µM,-0.27
